# Source: patent publication US5744485A, “Carbamates and ureas as modifiers of multi-drug resistance” (Vertex Pharmaceuticals Incorporated, priority 1995, dated 1998)
# At least one read-out could not be matched to a standard name with certainty.
# Tested on: L1210 mouse leukemia cells transformed with the pHaMDR1/A retrovirus carrying a MDR1 cDNA (L1210VMDRC.06)
# Assay: MDR sensitization assay: reversal of MDR to doxorubicin in L1210VMDRC.06 cells (MTT or XTT viability, 3 days) (Table 1)
# Conditions: IC50 Dox/IC50 Dox+Inhibitor, 4320 min
# Protocol: To assay the ability of the compounds according to this invention to increase the antiproliferative activity of a drug, cell lines which are known to be resistant to a particular drug may be used. These cell lines include, but are not limited to, the L1210, P388D, CHO and MCF7 cell lines. Alternatively, resistant cell lines may be developed. The cell line is exposed to the drug to which it is resistant, or to the test compound; cell viability is then measured and compared to the viability of cells which are exposed to the drug in the presence of the test compound. […]
# Multi-drug resistance assays were conducted by plating cells (2×10^3, 1×10^4, or 5×10^4 cells/well) in 96 well microtiter plates and exposing them to a concentration range of doxorubicin (50 nM-10 μM) in the presence or absence of multi-drug resistance modifier compounds ("MDR inhibitors") of this invention (1, 2.5 or 10 μM) as described in Ford et al., Cancer Res., Vol. 50, 1748-1756. […] After culture for 3 days, the viability of cells was quantitated using MTT (Mossman) or XTT dyes to assess mitochondrial function. […]
# Results were determined by comparison of the IC50 for doxorubicin alone to the IC50 for doxorubicin+MDR inhibitor. An MDR ratio was calculated (IC50 Dox/IC50 Dox+Inhibitor) and the integer value used for comparison of compound potencies.
substance,measurement,setting,value
"(S)-1-((3,4,5-Trimethoxyphenyl)-methyl-carbamoyl)-piperidine-2-carboxylic acid 4-pyridin-1-yl-1-(3-pyridin-1-yl-propyl)-butyl ester [Compound 10]",MDR Ratio 1.0 μM Cpd.,1.0 μM compound,2.1
same,MDR Ratio 2.5 μM,2.5 μM compound,7.8
